In all, about 52,000 sequences went through this assay and about 210 (0.4%) were called active.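 The calls were made as follows: active = gene whose silencing raises cell survival under the drug, median off-target-corrected z-score across its silencing RNAs 2 or more; inactive = the rest.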 The list shows a part of the results.
experiment: Resistance to Poly (ADP-Ribose) Polymerase inhibitor: Gene Identification via Genome-wide siRNA Screen; details: mouse BRCA2 R2336H ES cells, olaparib, CellTiter-Glo viability; hits give high values
In short: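 Mouse BRCA2 R2336H ES cells were reverse-transfected with siRNA (20 nM final), treated at 48 h with 500 nM olaparib, and read by CellTiter-Glo after 72 h. Scores: MAD-based z per siRNA, median per gene, seed off-target correction.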

Sequence	z-score
GGUGAUCAAGGACAUUUAATT against Psma5	inactive: -1.27
GGAAUUUUGCCAGCAAAUGTT against Edaradd	inactive: 0.247
GGAUGACUAGACAGGAAAATT against Ptma	inactive: 2.2
CCUGGAGUGAAGUACAAAUTT against Zfp458	inactive: 2.26
CGAGCCGUUAAACAGUUCUTT against BC065078	inactive: 0.717
CCCUCUCUACGUGAUUCAATT against Brd2	inactive: -0.0891
GCUAAACUUAAGUCCAUCATT against 2610524B01Rik	inactive: -1.34
GGUGAUUCCCGAUUAUGUGTT against Ercc1	inactive: -0.912
GCUGGUUACAUAAAGCUACTT against Mcart1	inactive: 1.24
GGAGUUCCAGCUGUUGCUGTT against 4832406C22	inactive: 0.744
GGACUCAGAAGUGAACAUATT against Spata7	inactive: -2.34
GGCUGUCUCAGAGAAGAAATT against Phxr1	inactive: -1.25
CCUCAAAAAUGGGUACGGUTT against Sfrs6	inactive: 0.674
GGACAUAACUGUUUUAACATT against 2810443J12Rik	inactive: -0.0451
GAAGAUUAUCCAUUGCCCGTT against Sprrl9	inactive: -0.235
CGCCAAUAUGGCCAUUGACTT against Zfpn1a2	inactive: -2.29
GGUACACUAUGAGGUCUGCTT against Traf2	inactive: -0.195
GCAGAUCCAAGAACAUAAGTT against Acrbp	inactive: 1.39
GCAAUUUGGAACACCUAAGTT against 2810485I05Rik	inactive: 0.611
GGUACAAGUUAAGGUCUACTT against V1rf4	inactive: -1.4
CGCCGCACAGUUAAUGCUUTT against D14Ertd209e	inactive: -0.108
GCUAACUAACGAGAUGAUUTT against T	inactive: 0.0615
GAGUUACUGGAAUUAAAGGTT against Nrg4	inactive: -0.0572
GGUGGGAUCGAGGAACAAATT against Ext2	inactive: 0.736
GCAUGAUACCAAUAGAGAATT against Pte2b	inactive: -0.719
CCAAUAAGGUCGUUUCUAUTT against Olfr589	inactive: -1.64
GGAUAGGGAUUGGAGAUAUTT against Obfc1	inactive: 0.148
GCAGUUGAGACAAUAUGUCTT against Trim31	inactive: 1.35
GGGUUGGAUAAGGAGAAAATT against Polk	inactive: -1.34

In another format: entries from further up.
Sequence | z-score
GGUGAUCAAGGACAUUUAATT against Psma5 | inactive: -1.27
GGAUGACUAGACAGGAAAATT against Ptma | inactive: 2.2
GGUGAUUCCCGAUUAUGUGTT against Ercc1 | inactive: -0.912
GCAGAUCCAAGAACAUAAGTT against Acrbp | inactive: 1.39
CGCCGCACAGUUAAUGCUUTT against D14Ertd209e | inactive: -0.108
GGUGGGAUCGAGGAACAAATT against Ext2 | inactive: 0.736
CCAAUAAGGUCGUUUCUAUTT against Olfr589 | inactive: -1.64

Source: PubChem BioAssay AID1347423 (Functional Genomics Laboratory (NCATS/FGL), 2020)
